According to patent publication US20250060373A1, “NOVEL ASSAY AND NOVEL METHODS OF TREATING HUTCHINSON-GILFORD PROGERIA SYNDROME” (The Progeria Research Foundation, priority 2021, published 2025):

Test system: plasma progerin
Assay: Diurnal variation in plasma progerin using pharmacokinetics (pK) sample sets, trough vs post-dose
Format: in vivo, human

In the case of `NC(=O)N1CCC(CC(=O)N2CCC([C@H]3c4ncc(Br)cc4CCc4cc(Cl)cc(Br)c43)CC2)CC1` [lonafarnib], the “average difference between progerin trough and 2-, 4- and 8-hours post-dose” value (ProLon1, lonafarnib dose 115 mg/m^2, trough significantly lower, all p<0.05) is reported as “about 3,000 μg/mL” and the “progerin post-dose vs. trough levels” value (ProLon1 at 150 mg/m^2, post-dose hours 1, 2, 4, 6, 8, all p>0.05) is reported as “did not demonstrate significant changes”.
